Results on one molecule are retold here after patent US20100297703A1.

Test [1] deals with mutant CwlE-3×FLAG protein having no active domain (Bacillus subtilis). In words: anti-FLAG purification of cell surface extract of the WE15xLysM3FL strain, SDS-PAGE (protein from cells of OD600=2,000 loaded).
The target in test [2] is mutant CwlF-3×FLAG protein having no active domain (Bacillus subtilis). In words: anti-FLAG purification of cell surface extract of the WE13xLysM3FL strain, SDS-PAGE.

Results are given in words; binding and its absence hold for the method and conditions named.

B1: YoeB protein (protein)
chain: KNTSGDLSQKQALQLALSAREHFWNTMSGHNPKVKKAVCPSGTFEYQNLQYVYMCSDLGTKAKAVNYLTPIFTKTAIEKGFKDYHFTVSKGKLAVPIGDGDNLLNWKKSTAKLISKKGSTITYEFTVPTLDGSPSAKRKVTFVKENKKWKVNQFDAVI
Turning to B1, the binding result in test [1] and in test [2] was “no binding” in each case.
